These results are taken from PubChem BioAssay AID2685 (National Center for Advancing Translational Sciences (NCATS), 2010).

What is called AC50 is the midpoint of the concentration-response curve, whichever way the signal moves.

The test is described as follows: qHTS Assay for Lipid Storage Modulators in Drosophila S3 Cells.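 As to cell number change: cells counted by Cell Tracker Red CMTPX staining in the red channel.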 The settings on record: BODIPY lipid droplet fluorescence, 18-24 h; for cell number change: measured here: cell count max response, cells fed with added oleic acid. The essentials: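 Laser-scanning cytometry quantifies lipid droplet accumulation (500–530 nm total intensity; droplet/cell object ratio) in oleic acid-fed (400 uM added) Drosophila S3 cells treated with a concentration series. 20 uM Triacsin C defined 100% inhibition.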
For orientation: In qHTS, concentration-response curves come from the screen itself.

Setting [1] is: measured here: lipid fluorescence (Fed channel) AC50, cells fed with added oleic acid.
Where [2] appears, read: measured here: cell number channel AC50, cells fed with added oleic acid.

This is one part of the list. Further columns of the screen follow, without active or inactive calls. Compounds called inactive in the main read-out are mostly missing here. The note in brackets gives the kind of curve behind each potency; many fits are weak.

`CCOC(=O)c1ccc(NC(=O)c2nc[nH]c2C(=O)NCCCNC(=O)c2[nH]cnc2C(=O)Nc2ccc(C(=O)OCC)cc2)cc1`: the cell number change amounted to 17.3%. In addition, the AC50 under setting [1] is 0.164 µM [rising, full curve, poor fit]. Regarding `COc1ccc(-c2csc3nc(-c4ccccc4)oc(=O)c23)cc1OC`, the cell number change is -42.1%. The concentration at half-maximal activity (AC50) under setting [2] was 14.6 µM [falling, single point].

As to `CN(C)C(=O)CCSc1nnc(-c2ccco2)o1`, the cell number change is -34.6%. Also, the half-maximal activity concentration (AC50) under setting [1] is 0.731 µM [rising, single point]. `CC(C)N(Cc1nccn1C)C(=O)CC1C(=O)NCCN1Cc1ccc(F)cc1` (stereo not given): the cell number change worked out at 11.2%. Further, the AC50 under setting [1] was 14.6 µM [rising, partial curve].

In the case of `Cc1cccc(-n2c(C)c(-c3ccccc3)[nH]c2=S)c1`, the cell number change came out at 1.62%. Further, the AC50 under setting [1] is 29.1 µM [rising, single point]. Consider `CC(C)(C)C(=O)NC1CCN(CC(=O)Nc2ccc3c(c2)OCO3)CC1`, for which the concentration at half-maximal activity (AC50) under setting [1] is 0.411 µM [rising, full curve].

As to `O=C(NCCCN1CCN(CCCNC(=O)c2cc([N+](=O)[O-])ccc2Cl)CC1)c1cc([N+](=O)[O-])ccc1Cl`, the cell number change was 9.11%. The AC50 under setting [2] is 3.66 µM [rising, single point]. The concentration at half-maximal activity (AC50) under setting [1] is 0.13 µM [rising, full curve, poor fit]. Take `COCCN(Cc1nc2ccccc2c(=O)[nH]1)C(=O)c1cccc(S(=O)(=O)N2CCCC2)c1`: the cell number change is -3.06%. On to `Cc1cccc(C2NC(=O)c3ccccc3O2)c1` (stereo not given), for which the cell number change amounted to 35.5%. The AC50 under setting [2] is 2.31 µM [rising, partial curve, poor fit]. As to `CC(C)n1c(SCc2ccccc2F)nc2c1c(=O)n(C)c(=O)n2C`, the cell number change is -1.55%. The AC50 under setting [1] was 5.8 µM [rising, single point]. For the molecule `N/C(=N\OC(=O)c1cccs1)c1cccc([N+](=O)[O-])c1`, the cell number change is 16.7%. For the same molecule, the concentration at half-maximal activity (AC50) under setting [1] was 0.92 µM [rising, full curve, poor fit].

As for `CN1CCC(=NNC(=O)c2ccc(N(Cc3ccccc3Cl)S(C)(=O)=O)cc2)CC1`, the cell number change was -8.35%. In addition, the half-maximal activity concentration (AC50) under setting [1] was 6.51 µM [rising, single point]. Turning to `CCN(CC)C(=O)Cn1c(=O)n(Cc2ccc(F)cc2)c(=O)c2sccc21`, the cell number change came out at 73.3%. Also, the AC50 under setting [2] is 25.9 µM [rising, partial curve]. Besides, the AC50 under setting [1] was 6.51 µM [rising, single point]. `S=C(Nc1cccnc1)N1CCCCC1`: the cell number change was -38.8%. Besides, the concentration at half-maximal activity (AC50) under setting [1] is 0.00651 µM [falling, full curve, poor fit]. Regarding `CC(=O)N1N=C(c2ccccc2)CC1c1cn(Cc2ccccc2)c2ccccc12` (stereo not given), the cell number change is 3.06%. Besides, the concentration at half-maximal activity (AC50) under setting [1] is 0.58 µM [rising, single point]. As to `COc1ccccc1CNC(=O)CCNC(=O)C1CCN(S(=O)(=O)c2ccccc2)CC1`, the cell number change amounted to 8.4%. Moreover, the AC50 under setting [1] was 0.92 µM [rising, full curve, poor fit]. Take `CC(=O)N1CCC(=NNS(=O)(=O)c2ccc(C)c([N+](=O)[O-])c2)CC1`: the cell number change amounted to 37.7%. Under setting [2], the half-maximal activity concentration (AC50) is 0.00517 µM [rising, full curve, poor fit]. The AC50 under setting [1] was 2.91 µM [falling, full curve]. With `O=C(NCc1n[nH]c(=S)n1-c1ccc(Br)cc1)c1ccc(S(=O)(=O)N2CCCC2)cc1`, the cell number change is -3.61%. In addition, the concentration at half-maximal activity (AC50) under setting [2] is 0.82 µM [falling, full curve, poor fit]. Moreover, the concentration at half-maximal activity (AC50) under setting [1] was 3.26 µM [falling, single point]. On to `Cc1cc(C)n(-c2ccc(C(=O)Nc3ccc4c(c3)OCCO4)cc2)n1`, for which the cell number change turned out to be 138%. Further, under setting [2], the AC50 was 20.6 µM [rising, single point].

As for `CCC(C(=O)NCCc1ccco1)n1nc(C)c2c(C)n(-c3ccccc3)nc2c1=O` (stereo not given), the cell number change was -8.37%.

In the case of `Cc1ccc(C)c(COC(=O)c2cc(S(=O)(=O)N3CCCCC3)ccc2N2CCOCC2)c1`, the cell number change is -3.68%. For the same molecule, under setting [1], the AC50 was 0.731 µM [rising, single point].

For the molecule `COCCn1c(=S)[nH]c2ccccc21`, the AC50 by setting is: under setting [2], 6.51 µM [falling, single point]; under setting [1], 6.51 µM [falling, single point]. Consider `O=C1CC2(CCN(C(=O)C3CC(=O)N(c4ccccc4)C3)CC2)Oc2ccccc21` (stereo not given), for which the cell number change was -5.55%. Moreover, under setting [2], the AC50 is 3.66 µM [falling, single point]. Also, the AC50 under setting [1] was 3.26 µM [falling, single point]. On to `COc1ccc(CNCCC(c2ccc(F)cc2)c2ccc(OC)cc2)cc1` (stereo not given), for which the cell number change is -66.7%. The concentration at half-maximal activity (AC50) under setting [2] was 6.51 µM [falling, partial curve]. Turning to `COc1ccc(OCCNS(=O)(=O)Cc2ccccc2)cc1`, the cell number change was found to be 2.42%. Besides, the AC50 under setting [1] was 0.184 µM [rising, full curve, poor fit].

For the molecule `CCCC(C(=O)Nc1ccc(C)c(S(=O)(=O)N2CCOCC2)c1)c1ccccc1` (stereo not given), the AC50 under setting [1] is 5.8 µM [rising, partial curve, poor fit]. `CC(=O)NC(CC(=O)NC(C)c1ccc(Cl)cc1Cl)c1ccccc1` (stereo not given): the cell number change was 24.7%. `O=C(CSc1nc2ccccc2c(=O)[nH]1)N1CCN(c2ccccc2)CC1`: the cell number change is -18.8%.

`COc1cc(OC)cc(-c2nnc(SCC(=O)Nc3ccc(C(=O)O)cc3)s2)c1`: the AC50 was 0.366 µM [falling, full curve, poor fit] under setting [2] and 0.206 µM [falling, full curve, poor fit] under setting [1]. Consider `Cc1cc(C(=O)OC(C)C(=O)NC2CCCCC2C)c(C)o1` (stereo not given), for which the cell number change is -25%. Further, the AC50 under setting [2] was 3.26 µM [falling, full curve, poor fit]. Turning to `O=c1c(-c2ccc(Cl)cc2)cnc2n1CCS2`, the cell number change stood at 129%. Besides, the half-maximal activity concentration (AC50) under setting [2] is 29.1 µM [rising, single point]. In addition, the concentration at half-maximal activity (AC50) under setting [1] was 29.1 µM [rising, partial curve]. As for `S=C(Nc1ccccc1)Nn1cnnc1`, under setting [1], the AC50 is 0.58 µM [falling, single point].

Regarding `C=CCOc1c(Br)cc(C2C3=C(CCCC3=O)N(C)C3=C2C(=O)CCC3)cc1OCC`, the cell number change turned out to be 47.2%. Moreover, under setting [2], the concentration at half-maximal activity (AC50) was 0.116 µM [falling, full curve, poor fit]. The AC50 under setting [1] is 29.1 µM [rising, single point]. In the case of `COC(=O)c1cccc(NS(=O)(=O)c2ccc(OC)cc2)c1C`, the half-maximal activity concentration (AC50) under setting [1] is 29.1 µM [falling, single point]. In the case of `Cc1ccc(Cl)cc1NC(=O)COC(=O)CC1CC2CCC1C2` (stereo not given), the cell number change is -10.1%. In addition, the AC50 under setting [1] is 7.31 µM [falling, single point]. Turning to `O=C(CCCCn1c(=O)c2ccccc2n(Cc2ccccc2)c1=O)NC1CCN(Cc2ccccc2)CC1`, the cell number change is -18.3%. On the same count and under the same terms, the same measure for `COc1ccc(Cc2nnc(NS(=O)(=O)Cc3ccccc3)s2)cc1`: -6.64%. Turning to `CCN(CC(=O)NCc1ccc(Cl)cc1)C(=O)CNS(=O)(=O)c1ccc(NC(C)=O)cc1`, the cell number change was determined as 16.2%. The half-maximal activity concentration (AC50) under setting [1] was 29.1 µM [falling, single point]. For the molecule `CC(=O)c1ccc(NC(=O)CN2C(=O)NC(C)(c3ccc4c(c3)OCCO4)C2=O)cc1` (stereo not given), the cell number change is -9.77%. Further, the AC50 under setting [1] is 32.6 µM [rising, single point]. For `N#Cc1ccc(OCC(=O)N(C2CCCCC2)C2CCS(=O)(=O)C2)cc1` (stereo not given), the cell number change was -12.1%. Consider `CCSc1ncccc1-c1nc2ccccc2[nH]1`, for which the concentration at half-maximal activity (AC50) reads like this: under setting [2], 0.82 µM [rising, single point]; under setting [1], 4.61 µM [rising, single point]. Regarding `O=C(NCCCN1CCOCC1)C1CCN(S(=O)(=O)c2ccccc2)CC1`, the cell number change was -24%. Regarding `CCCN(C(=O)CSc1ncnc2sccc12)c1c(N)n(Cc2ccccc2)c(=O)[nH]c1=O`, the cell number change was found to be 21.9%. The AC50 under setting [1] was 0.731 µM [falling, single point].

Consider `COc1cc2c(cc1OC)C1O[C@](CCCCN3C(=O)c4ccccc4C3=O)(C2)OC2=C1C(=O)c1ccccc1C2=O`, for which the cell number change was -12.5%. In addition, the AC50 under setting [1] was 0.0266 µM [falling, full curve, poor fit]. As for `Cc1cccc(C(=O)OC(C)C(=O)Nc2ccc(S(=O)(=O)Nc3ncccn3)cc2)c1C` (stereo not given), the cell number change came out at 20.6%. Further, the AC50 under setting [2] was 6.51 µM [falling, partial curve, poor fit]. For the same molecule, under setting [1], the AC50 is 4.61 µM [rising, full curve, poor fit]. For the molecule `CNC(=S)N1CCN(C(c2ccccc2)c2ccccc2)CC1`, the AC50 under setting [1] was 0.731 µM [falling, single point]. As for `O=C(O)Cc1sc(N/N=C\c2ccccc2)nc1-c1ccccc1`, the cell number change came out at 33.8%. Moreover, the AC50 under setting [2] is 9.2 µM [rising, partial curve, poor fit].

`Cc1[nH]nc2c1C(c1ccsc1)C(C#N)=C(N)O2` (stereo not given): the half-maximal activity concentration (AC50) under setting [1] was 6.51 µM [falling, single point]. `CN(C)Cc1cccc([N+](=O)[O-])c1O`: the cell number change is -6.62%. Consider `CC(C)c1cc(NCCCN2CCOCC2)n2c(nc3ccccc32)c1C#N`, for which the cell number change is -17.7%. Also, under setting [1], the concentration at half-maximal activity (AC50) was 0.00517 µM [falling, full curve, poor fit]. `CNC(=S)N/N=C(\C)c1ccc(-n2ccnc2)cc1`: the cell number change is 15%. The AC50 under setting [2] is 0.0164 µM [rising, partial curve, poor fit]. On to `CC(C)=CCC/C(C)=C/CCC(C)NCCN1CCNCC1` (stereo not given), for which the cell number change was -33.5%. In addition, the half-maximal activity concentration (AC50) under setting [2] is 20.6 µM [falling, single point]. In addition, the AC50 under setting [1] is 16.4 µM [falling, single point]. On to `Cc1ccc(NCCC#N)cc1C`, for which the half-maximal activity concentration (AC50) under setting [1] is 0.651 µM [falling, full curve, poor fit]. Consider `CCNc1nc(Cl)nc(NNC(=O)C(C)Oc2ccccc2)n1` (stereo not given), for which the cell number change came to 10.3%. The AC50 under setting [2] was 4.11 µM [rising, single point].

Turning to `CCC(=NCCc1c(C)[nH]c2ccc(C)cc12)C1=C(O)CC(c2ccccc2)CC1=O` (stereo not given), the cell number change is -15.4%. Also, the AC50 under setting [1] was 29.1 µM [falling, single point]. For the molecule `Cc1ccc(S(=O)(=O)Nc2ccccc2F)cc1C(=O)NNC(=O)c1ccccc1O`, the cell number change was -16.2%. The AC50 under setting [1] is 0.13 µM [falling, full curve, poor fit]. For the molecule `CCCOCC(O)CC(Cc1ccccc1)C(=O)NN` (stereo not given), the cell number change turned out to be 21.1%. In addition, the AC50 under setting [1] was 11.6 µM [rising, partial curve]. On to `NC(=O)CC(NC(=O)c1ccccc1)c1ccc(N2CCC(N3CCCC3)CC2)c([N+](=O)[O-])c1` (stereo not given), for which the cell number change is 2.1%. With `Cc1ccc2c(CC(=O)NNC(=O)c3ccccc3O)coc2c1`, the cell number change was -35.7%. Moreover, the half-maximal activity concentration (AC50) under setting [2] is 29.1 µM [falling, single point].
